Source: paper doi:10.1101/2021.08.25.457680
Results are given in words; binding and its absence hold for the method and conditions named. For some of these results: Binding seen in cells or lysates may run through a third protein. Some entries that bind do so weakly or less than the wild type. For some of these results: Sequences can lack the tags named with a protein.

Amino acid sequences for entries named in this document (tags omitted).
UniProt O00560, whole entry: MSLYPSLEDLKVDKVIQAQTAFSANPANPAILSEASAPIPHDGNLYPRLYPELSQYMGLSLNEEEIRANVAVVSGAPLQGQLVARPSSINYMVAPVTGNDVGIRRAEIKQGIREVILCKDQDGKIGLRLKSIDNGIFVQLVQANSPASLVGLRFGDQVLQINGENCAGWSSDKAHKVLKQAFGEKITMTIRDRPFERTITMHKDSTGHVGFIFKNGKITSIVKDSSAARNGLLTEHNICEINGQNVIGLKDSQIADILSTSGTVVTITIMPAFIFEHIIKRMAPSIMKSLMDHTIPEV

T1: SDCBP2 (syntenin-2) expressed in transfected HEK293 cells (human) (UniProt Q9H190)
T1 sequence: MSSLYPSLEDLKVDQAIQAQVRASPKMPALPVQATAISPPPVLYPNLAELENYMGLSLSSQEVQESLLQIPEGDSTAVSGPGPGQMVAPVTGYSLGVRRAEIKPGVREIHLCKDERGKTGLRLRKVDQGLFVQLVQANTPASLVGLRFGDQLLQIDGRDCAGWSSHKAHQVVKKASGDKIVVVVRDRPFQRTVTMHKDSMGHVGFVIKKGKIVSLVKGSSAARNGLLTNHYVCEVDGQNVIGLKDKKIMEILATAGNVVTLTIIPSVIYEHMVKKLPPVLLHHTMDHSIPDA

B1: SDCBP2 fused to Gal4 activating domain (AD) (protein, UniProt Q9H190 1-292)
chain: MSSLYPSLEDLKVDQAIQAQVRASPKMPALPVQATAISPPPVLYPNLAELENYMGLSLSSQEVQESLLQIPEGDSTAVSGPGPGQMVAPVTGYSLGVRRAEIKPGVREIHLCKDERGKTGLRLRKVDQGLFVQLVQANTPASLVGLRFGDQLLQIDGRDCAGWSSHKAHQVVKKASGDKIVVVVRDRPFQRTVTMHKDSMGHVGFVIKKGKIVSLVKGSSAARNGLLTNHYVCEVDGQNVIGLKDKKIMEILATAGNVVTLTIIPSVIYEHMVKKLPPVLLHHTMDHSIPDA

Assays:
[1] = biological target: Tax-1 fused to the Gal4 DNA-binding (DB) domain (HTLV-1) (UniProt P03409); test: two-hybrid
[2] = biological target: Flag-Syntenin (Flag-SDCBP, syntenin-1) (human) (UniProt O00560); test: co-IP
[3] = biological target: T1, SDCBP2 (syntenin-2) expressed in transfected HEK293 cells (human); test: co-IP

| Molecule | binding [1] | binding [2] | binding [3] |
| --- | --- | --- | --- |
| SDCBP fused to Gal4 activating domain (AD) (from UniProt O00560 1-298) | binds | – | – |
| Tax-1 expressed in transfected HEK293 cells (from UniProt P03409 1-353) | – | binds | binds |
| B1 | binds | – | – |
